Values from PubChem BioAssay AID720505 (Drosophila RNAi Screening Center, 2013).
In all, the deposit lists about 20,000 reagents; below is a random part of those with a known target gene and a result. In the full data, about 2,100 (10%) were called active. 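Raw plate signals without normalisation; calls rest on control-based scores that were not deposited; replicate 2 separates called from uncalled poorly.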 The record does not give: the amount of reagent, the time to read-out.

Purpose: 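Knock-downs that reduce calcium influx once internal stores are emptied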 (primary screen)
Cells: Drosophila S2R+ cells
Reagents: long dsRNA against Drosophila genes
Challenge: thapsigargin (2 µM) in calcium-free buffer to empty internal stores, then 2 mM calcium added back
Detection: 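Stores emptied by 2 µM thapsigargin without calcium, then 2 mM calcium re-added; fluo-4 fluorescence followed by FLIPR in 384-well plates, per-well averaged endpoint, raw; two screen passes, some wells retested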
Reading the numbers: calcium signal: higher = more calcium entry after store depletion
Call rule: 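Knock-downs counted as hits when calcium entry dropped relative to STIM1 positive and Rho1 negative controls present on each plate; roughly 1500 genes called, with reductions of differing size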
Calls: active = called as lowering calcium entry; inactive = not called

For Drsl1 (Drosomycin-like 1) [DRSC22490] the deposit lists calcium signal, replicate 1 = 105; calcium signal, replicate 2 = 164; inactive. Depletion of Jon66Cii (Jonah 66Cii) [DRSC10778] came out at: calcium signal, replicate 1 = 99.8; calcium signal, replicate 2 = 67.9; inactive. CG5339 [DRSC04496] gave calcium signal, replicate 1 = 96.7; calcium signal, replicate 2 = 96.3; inactive. prom (prominin) [DRSC04684] showed calcium signal, replicate 1 = 155; calcium signal, replicate 2 = 155; inactive. Knock-down of prom (prominin) [DRSC21463] came out at: calcium signal, replicate 1 = 120; calcium signal, replicate 2 = 88.3; inactive. With knock-down of prom (prominin) [DRSC22088] the results were calcium signal, replicate 1 = 76.9; calcium signal, replicate 2 = 203; inactive.

With knock-down of Idh3a (Isocitrate dehydrogenase 3a) [DRSC19446], the record shows calcium signal, replicate 1 = 126; calcium signal, replicate 2 = 96.2; inactive. CG15478 [DRSC18057] scored calcium signal, replicate 1 = 267; calcium signal, replicate 2 = 74.3; inactive. Against CG12307 [DRSC02159], the values are calcium signal, replicate 1 = 206; calcium signal, replicate 2 = 133; inactive. After knock-down of CG5347 [DRSC19942], the screen gave calcium signal, replicate 1 = 68; calcium signal, replicate 2 = 129; active. Knock-down of CG17059 [DRSC06654] resulted in: calcium signal, replicate 1 = 121; calcium signal, replicate 2 = 148; inactive. Knock-down of CG11664 [DRSC18650] gave: calcium signal, replicate 1 = 107; calcium signal, replicate 2 = 132; inactive.

Silencing of spas (spastin) [DRSC15929] gave: calcium signal, replicate 1 = 153; calcium signal, replicate 2 = 205; inactive. Against Cdk9 (Cyclin-dependent kinase 9) [DRSC04601], the values are calcium signal, replicate 1 = 62.2; calcium signal, replicate 2 = 170; active. Depletion of Ncoa6 (Nuclear receptor coactivator 6) [DRSC02353] resulted in: calcium signal, replicate 1 = 98.6; calcium signal, replicate 2 = 166; inactive. Knock-down of Ncoa6 (Nuclear receptor coactivator 6) [DRSC23060] gave: calcium signal, replicate 1 = 78.1; calcium signal, replicate 2 = 160; inactive. For Cpr11A (Cuticular protein 11A) [DRSC19861] the deposit lists calcium signal, replicate 1 = 92.8; calcium signal, replicate 2 = 89.9; inactive. Against CG17177 [DRSC10257], the entry reads calcium signal, replicate 1 = 104; calcium signal, replicate 2 = 199; inactive.

Against cGlr1 (cGAS-like receptor 1) [DRSC06270], the values are calcium signal, replicate 1 = 100; calcium signal, replicate 2 = 108; inactive. mbm (mushroom body miniature) [DRSC00319] gave calcium signal, replicate 1 = 85.3; calcium signal, replicate 2 = 189; inactive. Knock-down of CG32537 [DRSC20073] gave: calcium signal, replicate 1 = 172; calcium signal, replicate 2 = 139; inactive. With knock-down of CG3009 [DRSC18263] the results were calcium signal, replicate 1 = 96.6; calcium signal, replicate 2 = 81.2; inactive. With knock-down of CG7542 [DRSC10868], the screen gave calcium signal, replicate 1 = 112; calcium signal, replicate 2 = 280; inactive. Silencing of CG18011 [DRSC06697] gave: calcium signal, replicate 1 = 151; calcium signal, replicate 2 = 161; inactive.

Against CG18011 [DRSC06706], the values are calcium signal, replicate 1 = 85.2; calcium signal, replicate 2 = 141; inactive. With knock-down of fiz (fezzik) [DRSC20188], the record shows calcium signal, replicate 1 = 110; calcium signal, replicate 2 = 112; inactive. Against Ars2 (Arsenic resistance protein 2) [DRSC04893], the values are calcium signal, replicate 1 = 193; calcium signal, replicate 2 = 120; inactive. Depletion of Ing5 (Inhibitor of growth family member 5) [DRSC03188] resulted in: calcium signal, replicate 1 = 87.7; calcium signal, replicate 2 = 109; inactive.
